Values from PubChem BioAssay AID504808 (Drosophila RNAi Screening Center, 2011).
The screen tested about 21,000 reagents; this is an unselected part of those that have a named target and a result. In the full data, 18 (0.084%) got an active call. 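Raw counts without plate normalisation, one of two replicates; the ratio scores behind the calls were not deposited.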 A number with no mark means an inactive call. The record does not give: the amount of reagent, the time to read-out.

Test: 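Genes whose loss lifts activity of an E2F-responsive reporter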 (primary screen)
System: Drosophila S2 cells
Knock-down reagent: long dsRNA against Drosophila genes
Detection: 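Dual luciferase plate measurements; E2F-specific signal taken as firefly over Renilla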
Reading the numbers: E2F firefly: higher = more E2F reporter activity; Renilla normaliser: higher = more normaliser reporter signal
Call rule: 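Called active if the normalised E2F reporter went up by over 50%; the cutoff is arbitrary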

The opening 2 entries, to show the layout:
gd (GeneID 32159) [DRSC20336]
- E2F firefly, rep 1: 1.32e5
- Renilla normaliser, rep 1: 6345

Mks1 (GeneID 32200) [DRSC19697]
- E2F firefly, rep 1: 80789
- Renilla normaliser, rep 1: 4463

The list itself, repeating the preview:
gd (GeneID 32159) [DRSC20336]
- E2F firefly, rep 1: 1.32e5
- Renilla normaliser, rep 1: 6345

Mks1 (GeneID 32200) [DRSC19697]
- E2F firefly, rep 1: 80789
- Renilla normaliser, rep 1: 4463

lush (GeneID 40136) [DRSC11364]
- E2F firefly, rep 1: 1.39e5
- Renilla normaliser, rep 1: 7270

Prosalpha3T (GeneID 43679) [DRSC15226]
- E2F firefly, rep 1: 1.11e5
- Renilla normaliser, rep 1: 6972

RpS13 (GeneID 34149) [DRSC03419]
- E2F firefly, rep 1: 64181
- Renilla normaliser, rep 1: 3785

brv2 (GeneID 39932) [DRSC10226]
- E2F firefly, rep 1: 1.50e5
- Renilla normaliser, rep 1: 8497

U2af50 (GeneID 32602) [DRSC20297]
- E2F firefly, rep 1: 7765
- Renilla normaliser, rep 1: 812

CG42258 (GeneID 32196) [DRSC19741]
- E2F firefly, rep 1: 67692
- Renilla normaliser, rep 1: 3510

CG42258 (GeneID 32196) [DRSC19783]
- E2F firefly, rep 1: 95547
- Renilla normaliser, rep 1: 4123

CG4267 (GeneID 33405) [DRSC00647]
- E2F firefly, rep 1: 1.64e5
- Renilla normaliser, rep 1: 6038

CG7101 (GeneID 32875) [DRSC20023]
- E2F firefly, rep 1: 1.43e5
- Renilla normaliser, rep 1: 5133

CG9590 (GeneID 41907) [DRSC16506]
- E2F firefly, rep 1: 78226
- Renilla normaliser, rep 1: 3187

CG17786 (GeneID 42879) [DRSC15270]
- E2F firefly, rep 1: 1.23e5
- Renilla normaliser, rep 1: 6286

mthl11 (GeneID 117467) [DRSC12779]
- E2F firefly, rep 1: 75842
- Renilla normaliser, rep 1: 3869

CG31077 (GeneID 318583) [DRSC13805]
- E2F firefly, rep 1: 93594
- Renilla normaliser, rep 1: 3236

CG7194 (GeneID 38933) [DRSC10784]
- E2F firefly, rep 1: 1.10e5
- Renilla normaliser, rep 1: 4068

Task6 (GeneID 41671) [DRSC16530]
- E2F firefly, rep 1: 1.22e5
- Renilla normaliser, rep 1: 6811

Klp68D (GeneID 39332) [DRSC11206]
- E2F firefly, rep 1: 80906
- Renilla normaliser, rep 1: 3892

CG34025 (GeneID 3885633) [DRSC08014]
- E2F firefly, rep 1: 1.29e5
- Renilla normaliser, rep 1: 4219

Daao2 (GeneID 33955) [DRSC02135]
- E2F firefly, rep 1: 1.02e5
- Renilla normaliser, rep 1: 4326

CtsL1 (GeneID 36546) [DRSC05462]
- E2F firefly, rep 1: 1.34e5
- Renilla normaliser, rep 1: 4966

CtsL1 (GeneID 36546) [DRSC07363]
- E2F firefly, rep 1: 2963
- Renilla normaliser, rep 1: 219

Proc (GeneID 250710) [DRSC03009]
- E2F firefly, rep 1: 1.15e5
- Renilla normaliser, rep 1: 126

su(Hw) (GeneID 41740) [DRSC17074]
- E2F firefly, rep 1: 69601
- Renilla normaliser, rep 1: 3510

l(2)05714 (GeneID 46066) [DRSC03118]
- E2F firefly, rep 1: 1.00e5
- Renilla normaliser, rep 1: 3933

CG9338 (GeneID 35357) [DRSC03213]
- E2F firefly, rep 1: 90357
- Renilla normaliser, rep 1: 3781

mRNA-cap (GeneID 32379) [DRSC19789]
- E2F firefly, rep 1: 1.01e5
- Renilla normaliser, rep 1: 5450

RhoGAP93B (GeneID 42496) [DRSC15488]
- E2F firefly, rep 1: 1.42e5
- Renilla normaliser, rep 1: 6884
